{"sequences": {"note": "Protein sequences, listed by entry. Tags and fused reporters are not part of them. Residues count along the entry.", "UniProt P09606, 2-373 limits assumed": "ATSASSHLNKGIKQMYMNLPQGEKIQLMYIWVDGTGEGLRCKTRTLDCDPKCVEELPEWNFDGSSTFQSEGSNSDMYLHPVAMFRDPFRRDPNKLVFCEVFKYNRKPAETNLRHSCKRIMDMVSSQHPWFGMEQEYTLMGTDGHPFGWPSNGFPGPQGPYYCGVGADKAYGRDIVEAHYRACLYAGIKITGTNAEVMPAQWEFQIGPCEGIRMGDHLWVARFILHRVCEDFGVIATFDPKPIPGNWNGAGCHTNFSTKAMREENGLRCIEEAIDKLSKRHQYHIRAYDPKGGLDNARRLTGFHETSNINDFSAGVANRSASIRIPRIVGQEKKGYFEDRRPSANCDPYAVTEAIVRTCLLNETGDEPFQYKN"}, "source": "patent US20090209474A1", "about": "“NOVEL USES FOR DRUGS TARGETING GLUTAMINE SYNTHETASE” (NEWTHERA, priority 2005, published 2009)", "key": {"Wistar rat brain GS": {"target": "T1, Wistar rat brain GS (Rattus norvegicus, UniProt P09606)", "T1 construct": "from tissue; host or cells: Wistar rat brain homogenate or membranes; in A19 also liver and lungs", "test": "GS activity in Wistar rat brain homogenates", "assay_type": "biochemical", "conditions": "in absence of 2β-ME", "description": "GS activity was assessed as mentioned above for purified sheep brain GS."}, "rat lung GS protein": {"system": "rat lung GS protein", "conditions": "dexamethasone 0.5 mg/kg; cited from earlier work"}, "[1]": {"test": "Adrenal weight of rats administered methylprednisolone", "assay_type": "in vivo, Wistar rats", "conditions": "repeated administration of methylprednisolone", "description": "Wistar rats were administered during 21 days once a day with methyprednisolone (5 mg/kg i.p.) plus GF (0.001, 0.01, 0.1 mg/kg), NF (1 and 10 mg/kg) or vehicle (PCB; i.p). Twenty-four hours after the last administrations, they were euthanatized. A complete necropsy was performed and main organs weighted."}}, "note": "For at least one compound, name, drawing or mass did not settle the structure. Some results were stated once for a whole list of compounds, not compound by compound.", "data": [{"smiles": "[Li]", "note": "[lithium, Li2CO3]", "values": [{"measurement": "concentration from which GS activity is inhibited", "setting": "Wistar rat brain GS", "value": "≥ 10^−12 M"}]}, {"smiles": "C[C@@H]1C[C@H]2[C@@H]3CCC4=CC(=O)C=C[C@]4(C)[C@@]3(F)[C@@H](O)C[C@]2(C)[C@@]1(O)C(=O)CO", "note": "[dexamethasone]", "values": [{"measurement": "augmentation of rat lung GS protein levels", "setting": "rat lung GS protein", "value": 2, "unit": "fold"}]}, {"smiles": "C[C@H]1C[C@@H]2[C@H]([C@@H](O)C[C@@]3(C)[C@H]2CC[C@]3(O)C(=O)CO)[C@@]2(C)C=CC(=O)C=C12", "note": "[methylprednisolone]", "values": [{"measurement": "adrenal weight", "setting": "[1]", "value": "decreased adrenal weight"}]}]}
